These are yes or no findings as the source states them, for the method shown. In cells and extracts the contact can be indirect. Some entries that bind do so weakly or less than the wild type.
Target: HA-LRP6 (over-expressed WNT co-receptor LRP6) (UniProt O75581)
Assay: co-IP

Chains of the proteins cited; added tags and fusions are not shown. Residues count along the entry.
UniProt O75581, residues 20-1613: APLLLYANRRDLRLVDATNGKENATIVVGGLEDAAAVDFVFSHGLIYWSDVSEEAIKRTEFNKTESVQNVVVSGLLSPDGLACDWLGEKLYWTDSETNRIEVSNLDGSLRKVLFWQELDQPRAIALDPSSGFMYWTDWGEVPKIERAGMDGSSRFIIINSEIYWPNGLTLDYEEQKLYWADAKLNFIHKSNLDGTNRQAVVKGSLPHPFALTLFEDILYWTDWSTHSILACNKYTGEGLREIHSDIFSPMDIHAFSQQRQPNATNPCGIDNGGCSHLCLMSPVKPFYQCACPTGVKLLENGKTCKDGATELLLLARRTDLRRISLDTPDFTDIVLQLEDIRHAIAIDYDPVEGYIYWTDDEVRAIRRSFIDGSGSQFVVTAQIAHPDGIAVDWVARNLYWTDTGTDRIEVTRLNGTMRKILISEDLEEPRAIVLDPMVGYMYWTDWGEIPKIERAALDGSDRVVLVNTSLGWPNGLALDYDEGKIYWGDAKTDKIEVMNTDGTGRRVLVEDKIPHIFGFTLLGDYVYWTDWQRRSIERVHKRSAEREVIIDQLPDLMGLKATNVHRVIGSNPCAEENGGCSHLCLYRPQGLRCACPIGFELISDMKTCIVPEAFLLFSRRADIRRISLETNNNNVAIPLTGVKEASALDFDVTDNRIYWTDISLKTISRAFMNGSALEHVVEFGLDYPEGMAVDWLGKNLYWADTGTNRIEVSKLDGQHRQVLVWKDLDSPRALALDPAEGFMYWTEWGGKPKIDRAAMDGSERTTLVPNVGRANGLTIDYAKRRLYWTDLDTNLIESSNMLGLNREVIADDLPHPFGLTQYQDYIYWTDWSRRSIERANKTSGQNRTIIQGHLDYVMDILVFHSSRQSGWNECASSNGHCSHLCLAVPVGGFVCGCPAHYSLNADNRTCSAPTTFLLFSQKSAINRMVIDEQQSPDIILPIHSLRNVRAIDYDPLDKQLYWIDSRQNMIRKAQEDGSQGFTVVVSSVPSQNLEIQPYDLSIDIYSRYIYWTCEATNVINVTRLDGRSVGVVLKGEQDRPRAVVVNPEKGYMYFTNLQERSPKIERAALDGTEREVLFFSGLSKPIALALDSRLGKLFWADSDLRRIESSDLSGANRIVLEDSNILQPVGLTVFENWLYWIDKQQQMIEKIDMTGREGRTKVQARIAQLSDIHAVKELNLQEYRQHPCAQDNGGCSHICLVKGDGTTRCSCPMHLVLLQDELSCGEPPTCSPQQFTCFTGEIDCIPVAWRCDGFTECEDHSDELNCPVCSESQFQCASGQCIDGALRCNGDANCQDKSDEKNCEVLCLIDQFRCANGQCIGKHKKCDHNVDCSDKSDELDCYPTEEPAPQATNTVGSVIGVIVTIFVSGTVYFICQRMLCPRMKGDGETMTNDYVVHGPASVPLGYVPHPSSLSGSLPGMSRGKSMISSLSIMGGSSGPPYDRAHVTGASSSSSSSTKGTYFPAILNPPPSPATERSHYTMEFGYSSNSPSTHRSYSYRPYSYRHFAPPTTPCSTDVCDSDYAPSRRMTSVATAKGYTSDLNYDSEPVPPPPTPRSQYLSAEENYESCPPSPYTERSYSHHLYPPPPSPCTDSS
UniProt Q2M2I8: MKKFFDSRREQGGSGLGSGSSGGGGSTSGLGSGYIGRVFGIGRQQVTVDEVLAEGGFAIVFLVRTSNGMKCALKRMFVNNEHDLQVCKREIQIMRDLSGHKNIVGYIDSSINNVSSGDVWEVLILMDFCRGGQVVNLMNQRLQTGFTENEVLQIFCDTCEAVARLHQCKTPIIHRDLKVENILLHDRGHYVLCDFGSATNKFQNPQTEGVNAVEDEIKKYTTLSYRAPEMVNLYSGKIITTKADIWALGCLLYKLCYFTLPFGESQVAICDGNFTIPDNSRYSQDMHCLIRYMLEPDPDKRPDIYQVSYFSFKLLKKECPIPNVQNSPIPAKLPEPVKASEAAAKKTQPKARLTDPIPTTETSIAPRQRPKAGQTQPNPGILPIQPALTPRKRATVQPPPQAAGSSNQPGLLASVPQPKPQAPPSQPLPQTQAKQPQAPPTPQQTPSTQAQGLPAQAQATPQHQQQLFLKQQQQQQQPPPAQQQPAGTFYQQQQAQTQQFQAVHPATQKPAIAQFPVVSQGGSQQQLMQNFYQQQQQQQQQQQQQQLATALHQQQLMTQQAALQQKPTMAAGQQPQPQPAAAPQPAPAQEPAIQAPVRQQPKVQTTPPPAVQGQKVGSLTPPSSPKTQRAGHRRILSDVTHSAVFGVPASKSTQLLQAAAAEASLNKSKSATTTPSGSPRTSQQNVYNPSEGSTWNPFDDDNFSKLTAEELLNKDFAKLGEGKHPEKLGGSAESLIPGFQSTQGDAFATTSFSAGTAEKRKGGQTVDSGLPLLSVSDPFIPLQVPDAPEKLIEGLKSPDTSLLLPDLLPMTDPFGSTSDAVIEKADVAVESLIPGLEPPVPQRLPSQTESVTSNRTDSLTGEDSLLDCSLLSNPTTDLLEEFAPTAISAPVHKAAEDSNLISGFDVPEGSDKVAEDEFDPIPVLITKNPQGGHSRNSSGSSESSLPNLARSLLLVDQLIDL

| binding | Substance |
| --- | --- |
| binds | FLAG-AAK1 (AP2 Associated Kinase 1, over-expressed) (from UniProt Q2M2I8 1-961) (enzyme) |
| binds | endogenous AAK1 (from UniProt Q2M2I8 1-961) (enzyme) |

Reference: publication doi:10.1101/258632
